Source: patent US7087633B2, “Method for treating perinatal asphyxia in a human or animal neonate” (Universitair Medisch Centrum, priority 2000, dated 2006)
At least one compound was matched to its structure with a doubt left.

Key:
[1] = tested on: newborn Dutch store piglets subjected to HI; conditions: 3 to 24 h post HI; versus PLAC, repeated ANOVA, all p<0.05
Method: Following anaesthesia and instrumentation 37 newborn Dutch store piglets (1–3 days old) were subjected to HI by occluding both common carotid arteries with inflatable cuffs and reducing the fraction of inspired oxygen for 60 min. MRS was performed continuously before, during and up to 3 h after start of HI and repeated at 24 h post HI. During hypoxia FiO2 was reduced>on-line=until PCr/Pi had decreased to at least 25% of baseline values. Immediately after HI the piglets received either placebo (PLAC; n=10), ALLO (20 mg/kg iv; n=10), DFO (10 mg/kg iv; n=10) or 2-IB (150 μM i.v.; n=7). Before HI and from 3 to 24 h post HI the piglets were monitored using aEEG for electrical brain activity determination. A neurologic scoring system was used ranging from 4 (normal) to 0 (flat trace). For 1H-MRS a PRESS sequence with CHESS water suppression was used to define a 1.7 ml periventricular voxel (TR 6 s, TE 144 ms, and nt=32 or 64). 31 P— MRS was done using a 4 cm-diameter surface coil for excitation and detection (TR 10 s, nt=32). Peak amplitudes of PCr, Pi, Lac and NAA were determined with time domain fitting procedures (VARPRO). Paired t-tests were used to compare measurements at 24 h versus baseline; repeated ANOVA served to monitor for trends between treatment groups.

[2] = tested on: free radical-induced brain damage in newborns; conditions: pilot study in newborn babies and experimental studies; cited from earlier work

## CC(=O)N(O)CCCCCNC(=O)CCC(=O)N(O)CCCCCNC(=O)CCC(=O)N(O)CCCCCN [DFO, deferoxamine, reference compound]
[1]
  neurologic score / electrical brain activity (aEEG): significant difference
[2]
  free radical-induced brain damage in newborns: reduce free radical-induced brain damage in newborns to some extend
